{"source": "PubChem BioAssay AID1259308 (NCATS, 2017)", "purpose": "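Candidate targets for better recombinant protein yield in mammalian cells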 (primary screen)", "system": "human HEK293 embryonic kidney cells stably expressing firefly luciferase (HEK-CMV-Luc2-Hygro)", "knock-down reagent": "single siRNA against human genes, 0.8 pmol siRNA per well", "time to read-out": "72 h", "measured": "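Reporter luminescence and viable-cell signal on separate replicate plates, given as percent of non-targeting control and median/MAD z-scores, plus per-cell luciferase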", "direction": "total luciferase, z-score and total luciferase, % of control: higher = more reporter protein produced", "call rule": "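Active when the median/MAD z-score for overall luciferase is greater than 3; a gene was taken forward for validation with new siRNAs if at least two of its three siRNAs passed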", "calls": "active = raised luciferase; inactive = no rise", "note": "The whole screen tested about 59,000 reagents; shown is a part drawn at random. About 1,510 of them (2.6%) count as active. 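Calls use total luciferase alone and ignore viability, so some active siRNAs may act by altering cell number.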 The numbers tell different reagents against one gene apart. Further read-outs or replicates are left out here."}
{"target": "CFD", "siRNA no.": 1, "total luciferase, z-score": 2.5, "total luciferase, % of control": 132, "activity call": "inactive"}
{"target": "CFD", "siRNA no.": 2, "total luciferase, z-score": 0.137, "total luciferase, % of control": 84.6, "activity call": "inactive"}
{"target": "CFD", "siRNA no.": 3, "total luciferase, z-score": 1.65, "total luciferase, % of control": 115, "activity call": "inactive"}
{"target": "LELP1", "siRNA no.": 1, "total luciferase, z-score": 0.00457, "total luciferase, % of control": 82, "activity call": "inactive"}
{"target": "LELP1", "siRNA no.": 2, "total luciferase, z-score": 0.596, "total luciferase, % of control": 93.7, "activity call": "inactive"}
{"target": "LELP1", "siRNA no.": 3, "total luciferase, z-score": 0.385, "total luciferase, % of control": 89.5, "activity call": "inactive"}
{"target": "TMEM42", "siRNA no.": 1, "total luciferase, z-score": -0.231, "total luciferase, % of control": 77.3, "activity call": "inactive"}
{"target": "TMEM42", "siRNA no.": 2, "total luciferase, z-score": 0.282, "total luciferase, % of control": 87.5, "activity call": "inactive"}
{"target": "TMEM42", "siRNA no.": 3, "total luciferase, z-score": 0.578, "total luciferase, % of control": 93.4, "activity call": "inactive"}
{"target": "DEPDC1B", "siRNA no.": 1, "total luciferase, z-score": 0.209, "total luciferase, % of control": 86.1, "activity call": "inactive"}
{"target": "DEPDC1B", "siRNA no.": 2, "total luciferase, z-score": 1.81, "total luciferase, % of control": 118, "activity call": "inactive"}
{"target": "DEPDC1B", "siRNA no.": 3, "total luciferase, z-score": 0.0687, "total luciferase, % of control": 83.3, "activity call": "inactive"}
{"target": "CNBD1", "siRNA no.": 1, "total luciferase, z-score": 0.804, "total luciferase, % of control": 97.9, "activity call": "inactive"}
{"target": "CNBD1", "siRNA no.": 2, "total luciferase, z-score": 0.562, "total luciferase, % of control": 93.1, "activity call": "inactive"}
{"target": "CNBD1", "siRNA no.": 3, "total luciferase, z-score": 2.53, "total luciferase, % of control": 132, "activity call": "inactive"}
{"target": "ZNF559", "siRNA no.": 1, "total luciferase, z-score": 1.84, "total luciferase, % of control": 119, "activity call": "inactive"}
{"target": "ZNF559", "siRNA no.": 2, "total luciferase, z-score": -0.851, "total luciferase, % of control": 65, "activity call": "inactive"}
{"target": "ZNF559", "siRNA no.": 3, "total luciferase, z-score": -0.675, "total luciferase, % of control": 68.5, "activity call": "inactive"}
{"target": "LUC7L3", "siRNA no.": 1, "total luciferase, z-score": 0.247, "total luciferase, % of control": 86.8, "activity call": "inactive"}
{"target": "LUC7L3", "siRNA no.": 2, "total luciferase, z-score": 1.7, "total luciferase, % of control": 116, "activity call": "inactive"}
{"target": "LUC7L3", "siRNA no.": 3, "total luciferase, z-score": 3.2, "total luciferase, % of control": 146, "activity call": "active"}
{"target": "CTSH", "siRNA no.": 1, "total luciferase, z-score": 0.136, "total luciferase, % of control": 84.6, "activity call": "inactive"}
{"target": "CTSH", "siRNA no.": 2, "total luciferase, z-score": -1.15, "total luciferase, % of control": 59, "activity call": "inactive"}
{"target": "CTSH", "siRNA no.": 3, "total luciferase, z-score": 0.0528, "total luciferase, % of control": 82.9, "activity call": "inactive"}
{"target": "ARHGAP12", "siRNA no.": 1, "total luciferase, z-score": 0.907, "total luciferase, % of control": 99.9, "activity call": "inactive"}
{"target": "ARHGAP12", "siRNA no.": 2, "total luciferase, z-score": -0.375, "total luciferase, % of control": 74.4, "activity call": "inactive"}
{"target": "ARHGAP12", "siRNA no.": 3, "total luciferase, z-score": 0.306, "total luciferase, % of control": 88, "activity call": "inactive"}
{"target": "HMMR", "siRNA no.": 1, "total luciferase, z-score": -0.45, "total luciferase, % of control": 72.9, "activity call": "inactive"}
{"target": "HMMR", "siRNA no.": 2, "total luciferase, z-score": -0.476, "total luciferase, % of control": 72.4, "activity call": "inactive"}
{"target": "HMMR", "siRNA no.": 3, "total luciferase, z-score": -0.418, "total luciferase, % of control": 73.6, "activity call": "inactive"}
{"target": "IFT74", "siRNA no.": 1, "total luciferase, z-score": -0.409, "total luciferase, % of control": 73.8, "activity call": "inactive"}
{"target": "IFT74", "siRNA no.": 2, "total luciferase, z-score": -0.512, "total luciferase, % of control": 71.7, "activity call": "inactive"}
{"target": "IFT74", "siRNA no.": 3, "total luciferase, z-score": -0.225, "total luciferase, % of control": 77.4, "activity call": "inactive"}

Quoted from the listing, 2 entries:
{"target": "DEPDC1B", "siRNA no.": 3, "total luciferase, z-score": 0.0687, "total luciferase, % of control": 83.3, "activity call": "inactive"}
{"target": "CNBD1", "siRNA no.": 1, "total luciferase, z-score": 0.804, "total luciferase, % of control": 97.9, "activity call": "inactive"}
